According to paper PMC11699347, “Heme regulates protein interactions and phosphorylation of BACH2 intrinsically disordered region in humoral response” (iScience, 2024):
Construct, isoform or probe ends are uncertain for at least one entry. For part of these data: No signal at the amounts used counts as a negative. For part of these data: Weaker means in comparison with the reference protein, sequence or condition of that experiment.

Assays:
[1] = tested on: GST-BACH2_331-839 + MBP-MafK; test: EMSA; settings: 32P-labeled ds probes, 30 min incubation, 4% polyacrylamide gel, pH and temperature not stated, recombinant protein, protein details: N-terminal GST,MBP, label: 32P 5' end (PNK)
[2] = tested on: GST-BACH2_331-839 + MBP-MafK; test: competition with a labelled probe; settings: unlabeled competitor against TBK1#2_WT probe, did not compete; 32P-labeled ds probes, 30 min incubation, 4% polyacrylamide gel; pH and temperature not stated; recombinant protein; protein details: N-terminal GST,MBP; label: none (competitor)

“GACTAAAACATGACTCAGCACACCCAACG (double strand) [TBK1#2_WT]”: binds ([1]; supershift/block with anti-BACH2, self-competition).

“GACTAAAAGAGATAAATCGGGACCCAACG (double strand) [TBK1#2_Mut]”: no binding [2].

“TAGCCTGTGCTGATTCAGCAAGCCGT (double strand) [TBK1#1_WT]”: binds more weakly ([1]; substantially weaker than site #2).
